1 substance from article PMC12293820 can be followed below.

Protein sequences, listed by entry. Tags and fused reporters are not part of them.
UniProt Q16665: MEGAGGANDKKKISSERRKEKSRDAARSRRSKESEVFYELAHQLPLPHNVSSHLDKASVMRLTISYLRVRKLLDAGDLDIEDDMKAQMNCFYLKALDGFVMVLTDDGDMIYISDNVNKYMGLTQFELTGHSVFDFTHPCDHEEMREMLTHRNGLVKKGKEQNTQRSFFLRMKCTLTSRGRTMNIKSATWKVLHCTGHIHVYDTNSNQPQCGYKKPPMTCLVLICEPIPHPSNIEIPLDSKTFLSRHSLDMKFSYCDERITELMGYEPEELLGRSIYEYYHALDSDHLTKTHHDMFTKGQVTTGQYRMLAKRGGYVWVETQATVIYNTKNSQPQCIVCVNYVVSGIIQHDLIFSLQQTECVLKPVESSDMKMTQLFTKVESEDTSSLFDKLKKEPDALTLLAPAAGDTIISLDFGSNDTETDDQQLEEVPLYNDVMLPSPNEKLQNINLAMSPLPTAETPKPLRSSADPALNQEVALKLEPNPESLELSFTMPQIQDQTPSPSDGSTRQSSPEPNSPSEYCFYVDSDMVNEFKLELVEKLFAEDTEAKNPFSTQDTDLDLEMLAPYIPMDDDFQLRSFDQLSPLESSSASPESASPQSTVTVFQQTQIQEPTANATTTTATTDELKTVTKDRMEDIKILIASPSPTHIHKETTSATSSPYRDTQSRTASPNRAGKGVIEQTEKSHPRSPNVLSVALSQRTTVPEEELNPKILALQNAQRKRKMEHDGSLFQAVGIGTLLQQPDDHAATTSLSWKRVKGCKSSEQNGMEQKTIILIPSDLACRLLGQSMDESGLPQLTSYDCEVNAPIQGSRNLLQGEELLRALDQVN

Test [1] deals with T1, Estrogen-Related Receptor α (human (endogenous in MCF-7 and SK-BR-3)) (UniProt P11474).
T1 sequence: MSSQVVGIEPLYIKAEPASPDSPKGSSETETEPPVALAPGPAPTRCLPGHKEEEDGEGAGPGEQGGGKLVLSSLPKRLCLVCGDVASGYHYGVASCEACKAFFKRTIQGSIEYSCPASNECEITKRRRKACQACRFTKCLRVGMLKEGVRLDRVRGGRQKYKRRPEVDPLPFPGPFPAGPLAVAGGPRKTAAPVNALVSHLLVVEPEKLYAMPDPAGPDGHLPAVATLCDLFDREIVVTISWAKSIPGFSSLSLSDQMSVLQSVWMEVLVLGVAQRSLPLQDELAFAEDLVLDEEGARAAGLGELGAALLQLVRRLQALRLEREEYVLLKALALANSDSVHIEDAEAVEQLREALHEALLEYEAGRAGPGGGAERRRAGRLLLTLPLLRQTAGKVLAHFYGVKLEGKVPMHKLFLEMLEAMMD
Briefly: co-IP; 500 µg total protein of MCF-7 (spheroid) or SK-BR-3 (375 µM CoCl2) cells under hypoxia; lysis in 50 mM Tris-HCl pH 7.4, 150 mM NaCl, 1% Triton X-100; immunoprecipitated overnight with rabbit polyclonal anti-ERRα and protein-G Sepharose; washes incl. 0.5 M LiCl; Western blot. A general note: A western blot detects proteins with antibodies after separation by electrophoresis.

Test [2] concerns the target T1, Estrogen-Related Receptor α (human (endogenous in MCF-7 and SK-BR-3)). Briefly: condition: only cells treated with DES 25 µM for 24 h; co-IP; as a1, hypoxic MCF-7 and SK-BR-3 cells incubated 24 h with DES (ERRα inhibitor) 25 µM before lysis.
The target is the same in test [3]. The experiment in a line: condition: only cells treated with XCT790 10 µM for 24 h; co-IP; as a1, hypoxic MCF-7 and SK-BR-3 cells incubated 24 h with XCT790 (inverse agonist of ERRα) 10 µM before lysis.
Test [4] shares this target. Briefly: condition: only cells treated with YC-1 2.5 µM for 24 h; co-IP; as a1, hypoxic MCF-7 and SK-BR-3 cells incubated 24 h with YC-1 (HIF-1α inhibitor) 2.5 µM before lysis.

These are yes or no findings as the source states them, for the method shown. In cells and extracts the contact can be indirect. Some results given as binding are weak or reduced against the parent protein; the word gives no strength.

Consider “Hypoxia-inducible factor 1-alpha (from UniProt Q16665 1-826)”, for which the binding result is “binds” in test [1], “no binding” in test [2], “no binding” in test [3] and “no binding” in test [4].
